Reference: paper PMC11943061
These are yes or no findings as the source states them, for the method shown. Binding seen in cells or lysates may run through a third protein. Some binding calls cover weakened binding; strength is not graded here.

Amino acid sequences for entries named in this document (tags omitted).
UniProt P02340: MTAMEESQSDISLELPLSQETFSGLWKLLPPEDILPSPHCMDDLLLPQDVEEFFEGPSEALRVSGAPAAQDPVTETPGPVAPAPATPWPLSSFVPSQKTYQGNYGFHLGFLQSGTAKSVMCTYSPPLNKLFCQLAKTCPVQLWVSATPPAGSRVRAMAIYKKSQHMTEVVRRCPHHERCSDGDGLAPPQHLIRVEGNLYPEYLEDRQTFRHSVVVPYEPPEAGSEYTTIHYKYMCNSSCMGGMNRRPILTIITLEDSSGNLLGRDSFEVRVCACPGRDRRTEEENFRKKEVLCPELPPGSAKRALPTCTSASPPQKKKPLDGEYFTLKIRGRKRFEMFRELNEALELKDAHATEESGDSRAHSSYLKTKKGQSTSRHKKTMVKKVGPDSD

Tests used:
[1] = target: Transferrin receptor 1 (TFRC) (not stated (in mouse ATDC5 cells; endogenous or from the Flag-tagged plasmid not told)) (UniProt Q62351); experiment: co-IP; cell lysate (lysis buffer with 1% PMSF and 1% phosphatase inhibitor) treated with RNase A (10 ug/mL); incubated with IgG or the corresponding antibodies overnight at 4 °C, Protein A/G beads 3-4 h, washed 3 times with lysis buffer; Western blot
[2] = target: T1, SLC39A14 (solute carrier family 39 member 14) (mouse (endogenous in ATDC5)) (UniProt Q75N73); experiment: as above
T1 sequence: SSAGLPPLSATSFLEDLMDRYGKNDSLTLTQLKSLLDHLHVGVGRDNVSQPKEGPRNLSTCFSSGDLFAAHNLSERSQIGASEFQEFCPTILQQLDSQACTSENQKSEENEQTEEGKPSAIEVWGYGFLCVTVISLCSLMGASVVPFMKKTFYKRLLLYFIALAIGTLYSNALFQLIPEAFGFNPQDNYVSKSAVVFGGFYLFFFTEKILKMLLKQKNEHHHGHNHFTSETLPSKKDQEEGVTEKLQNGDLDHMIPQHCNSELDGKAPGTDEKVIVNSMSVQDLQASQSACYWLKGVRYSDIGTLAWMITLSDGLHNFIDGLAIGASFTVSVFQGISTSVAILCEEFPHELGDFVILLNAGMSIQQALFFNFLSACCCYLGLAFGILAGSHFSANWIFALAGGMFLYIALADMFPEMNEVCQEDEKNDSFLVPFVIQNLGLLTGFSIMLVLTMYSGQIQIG

binding [1]: no binding
binding [2]: binds
Substance: p53 (from UniProt P02340 1-390)
